Results deposited as PubChem BioAssay AID1259300 (Sanger Institute, 2017).
This is one part, drawn at random, of 794 reagents. Over the whole deposit, 18 (2.3%) are marked active. 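Calls rest on knock-down alone, not drug synergy; depositor treated synergy scores above 0.15 as synergistic; drug doses alone had little viability effect.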 Not all columns of the deposit are shown. Reagent sequences are not shown. Not given: the amount of reagent, the time to read-out.

- Test: 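siRNA screen of kinases and common colorectal cancer mutant genes, alone or with drugs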 (primary screen)
- Cell system: HCT15 colorectal cancer cells
- Reagent: siRNA pool against human genes
- Challenge: anchor drug or DMSO vehicle added 24 h after seeding: BYL719 1 µM, cetuximab 5 µg/ml, trametinib 10 nM; drug doses chosen to barely affect viability alone
- Read-out: 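Cell viability after knock-down, as fraction of non-targeting pool wells averaged over replicates, plus robust z-score for knock-down alone; synergy score per drug (BYL719 1 µM, cetuximab 5 µg/ml, trametinib 10 nM)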
- Scale: viability z-score, siRNA alone: higher = more viable cells after knock-down
- Active means: 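Called active (essential) if viability z-score with knock-down alone falls below -3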
- Meaning of the calls: active = essential: knock-down alone lowers viability (z below -3); inactive = no strong viability loss with knock-down alone

The opening 2 records, to show the layout:
| Gene | viability z-score, siRNA alone | call |
| --- | --- | --- |
| DGKQ (GeneID 1609) | -0.209 | inactive |
| PSKH1 (GeneID 5681) | 0.625 | inactive |

The list itself, repeating the preview:
| Gene | viability z-score, siRNA alone | call |
| --- | --- | --- |
| DGKQ (GeneID 1609) | -0.209 | inactive |
| PSKH1 (GeneID 5681) | 0.625 | inactive |
| MYLK2 (GeneID 85366) | -1.62 | inactive |
| MAP2K5 (GeneID 5607) | 0.625 | inactive |
| HIPK3 (GeneID 10114) | 0.305 | inactive |
| EPHA7 (GeneID 2045) | 0.625 | inactive |
| AXIN2 (GeneID 8313) | 0.466 | inactive |
| STK40 (GeneID 83931) | 0.321 | inactive |
| MAPK10 (GeneID 5602) | 0.625 | inactive |
| TRIO (GeneID 7204) | -0.291 | inactive |
| KHK (GeneID 3795) | 0.625 | inactive |
| IRAK1 (GeneID 3654) | 0.625 | inactive |
| HK1 (GeneID 3098) | 0.625 | inactive |
| SMAD4 (GeneID 4089) | 0.35 | inactive |
| LATS1 (GeneID 9113) | 0.625 | inactive |
| PIP4K2A (GeneID 5305) | 0.625 | inactive |
| FER (GeneID 2241) | 0.625 | inactive |
| XYLB (GeneID 9942) | -0.877 | inactive |
| CDC73 (GeneID 79577) | -0.546 | inactive |
| CSNK1D (GeneID 1453) | 0.625 | inactive |
| RELA (GeneID 5970) | 0.422 | inactive |
| PRKDC (GeneID 5591) | -1.93 | inactive |
| RPS6KA5 (GeneID 9252) | -0.491 | inactive |
| BMPR2 (GeneID 659) | 0.17 | inactive |
| PLK1 (GeneID 5347) | -5.77 | active |
| MAP2K7 (GeneID 5609) | 0.625 | inactive |
| MAPK4 (GeneID 5596) | 0.625 | inactive |
| MAP3K10 (GeneID 4294) | -0.0972 | inactive |
| EXOSC10 (GeneID 5394) | 0.625 | inactive |
| PIM1 (GeneID 5292) | -0.265 | inactive |
| AMER1 (GeneID 139285) | 0.625 | inactive |
| PTK2B (GeneID 2185) | -0.159 | inactive |
| PFKFB2 (GeneID 5208) | 0.625 | inactive |
| TNK1 (GeneID 8711) | 0.625 | inactive |
